From PubChem BioAssay AID1347423 (Functional Genomics Laboratory (NCATS/FGL), 2020)
Among all 52,000 sequences or so, about 210 (0.4%) were called active.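 How the source made its calls: active means gene whose silencing raises cell survival under the drug, median off-target-corrected z-score across its silencing RNAs 2 or more; inactive means the rest.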 The list shows a part of the results.

Assay: Resistance to Poly (ADP-Ribose) Polymerase inhibitor: Gene Identification via Genome-wide siRNA Screen
Conditions: mouse BRCA2 R2336H ES cells, olaparib, CellTiter-Glo viability; active compounds read high
Outline: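 Genome-wide siRNA screen (3 siRNAs/gene, 20 nM) in mouse ES cells carrying hypomorphic BRCA2 R2336H; olaparib 500 nM added 48 h post-transfection, CellTiter-Glo viability 72 h later. Normalized to plate-median negative control; MAD z-scores, gene median, seed-adjusted.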
In the case of GGCCCUUCAUUUAGUGGAUTT against Trim44, the z-score is reported as inactive: -1.06. For GGACCAAGGCUUUAUGAACTT against Crygn, the z-score was inactive: 1.61. In the case of “GCCCAUGCCUAUGCUAAUGTT against A530095I07Rik”, the z-score is reported as inactive: -0.819. For GGUCUUUUCGAACUCUUCATT against Senp2, the z-score was inactive: -0.392. For GGAUUAGGAAACGUGUAUUTT against Jmjd1b, the z-score was inactive: -0.0148. With GCGACUAUCUAACACGAGUTT against Sacm1l the z-score was inactive: -1.03. For GGUCAAAAUUGAAUAUCCATT against Gpr172b, the z-score was inactive: 0.696. With GCUUUUCACACGAAAAGGATT against BC042901 the z-score was inactive: -0.0398. In the case of GAAGCCUAUUGCUCAAGAUTT against LOC382106, the z-score is reported as inactive: 1.14. For CCAAACCACCUACCGUAAATT against Rnase9, the z-score was inactive: 0.971. For CCCACUGUGUUUGUAAAGATT against Emr4, the z-score was inactive: -0.49. With GCCAUCUUUUUACCUGGUCTT against Sepn1 the z-score was inactive: -0.394. For CGAGAUUGACUCUAUUGGCTT against Psmc5, the z-score was inactive: -0.000499. With GCUAAUGGACGAUUUGAAGTT against Ube2j1 the z-score was inactive: 0.0387. For GGCUCUUCAUGAUCCUUUGTT against Clic4, the z-score was inactive: 0.155. With GGUGCUACAAGAAAUGUCUTT against F13b the z-score was inactive: -0.0762. In the case of AAAGAGAUUGGAAAUCUUCTT against BQ176089, the z-score is reported as inactive: 0.594. For GGCAAGAAUUCGUUCAUGUTT against Centa1, the z-score was inactive: 0.638. For GGUCUUCGUGUCGACAUUCTT against Gpr153, the z-score was inactive: 0.637. For GGACAUUGACACUACUCCATT against Cyp2c55, the z-score was inactive: 0.131. With “GGUAGAGCUGCACUUUGGATT against 1110033O09Rik” the z-score was inactive: -0.735. For GGAGACCUGAAUUUUUCAGTT against Map3k7ip2, the z-score was inactive: 0.671. In the case of GGCAUUUUUCUUAGUGAUCTT against Olfr1277, the z-score is reported as inactive: -0.096. With GGUAGGAAACCUCUCAGAGTT against Kcnc1 the z-score was inactive: -1.28. In the case of GGUCAACAUUUGCUGUAAGTT against Inhba, the z-score is reported as inactive: -0.181. With “GGGAGUUAUGUUGGUAUCATT against 1700029F12Rik” the z-score was inactive: -2.34. With GCUUAAAUUGACCUCAGUGTT against Nmi the z-score was inactive: -1.42. For CCUCAGAUAUUACAUACACTT against Sfrs3, the z-score was inactive: 0.298. In the case of GGAUGAAUGGAAUUUACUGTT against Fbxo18, the z-score is reported as inactive: 0.103. In the case of GGUGAAGCUGAAACAACAUTT against BC020002, the z-score is reported as inactive: 0.323. In the case of GGGAGAGAACGUGUUCUUCTT against P2rxl1, the z-score is reported as inactive: -1.15. With CGGGAAACUUAGGUAUGAUTT against Olfr1009 the z-score was inactive: -0.943. For GCAUAUGGUCCACUAAAAATT against Kcnj4, the z-score was inactive: 0.316. For “CCUGCUGAAAUAUCAUAAATT against C030039L03Rik”, the z-score was inactive: 0.187. For CCGCACAUGCUCUCAAAUATT against Polr3d, the z-score was inactive: 0.281. With GGGCUUCAGAAAAUCCAGGTT against Dclre1a the z-score was inactive: -0.827. In the case of GGCCAAGACACCCUUGUUUTT against Zfp524, the z-score is reported as inactive: -0.967. For CGAGCAUGCUGAAAAGACCTT against Steap, the z-score was inactive: -0.19. With “GGUUUUUGUGGCUGAUCUUTT against A230078I01Rik” the z-score was inactive: 2.53. With GCUUCUGAAUUACAAAGCUTT against Cmah the z-score was inactive: 0.955. With GGGAAUGUGUGCCUUGUUGTT against Olfr16 the z-score was inactive: -1.54. In the case of GGACCCUCUGCUCUUCAUUTT against Slc4a9, the z-score is reported as inactive: 1.39. With GCGUUCACGGUCAAAAAAUTT against Fbxw10 the z-score was inactive: 0.841. For “GCGCAACUAACUCACAACATT against 4930556L07Rik”, the z-score was inactive: 0.627. In the case of GGCGAACACUAAAAAGGCATT against AU021107, the z-score is reported as inactive: 0.434. For CGAUACCUUUAGUUGACUATT against Hcrtr2, the z-score was inactive: -1.21. For GCUUCUCUCUUCAUCUAUGTT against Olfr524, the z-score was inactive: 0.0334. For GGGUGUACUGAACUUUGUGTT against Gcn5l2, the z-score was inactive: -1.53. For “CCUUUAGCAUAAUAGGAAUTT against 9230109A22Rik”, the z-score was inactive: 1.82. In the case of “GCUGGAAUUCUCUUGGCUGTT against MGI:3576664”, the z-score is reported as inactive: -1.53. In the case of GCAGACAUUACCCUAUAGUTT against Mtf2, the z-score is reported as inactive: 0.677. In the case of GGAUGAUGACUUUGAGAAGTT against Map2k1, the z-score is reported as inactive: 0.162. With GGUUGUUCGUGGACACUACTT against Rpl26 the z-score was inactive: -2.07. With GCCUGCCUACGAGAUCAACTT against Mglap the z-score was inactive: 0.0298. For GGCUGUGCAUUAUAUCCUUTT against Lhfp, the z-score was inactive: -0.402. In the case of CCUGGUGUUCGUGUACCUGTT against Cdk5r2, the z-score is reported as inactive: 0.853. In the case of GGAUAUAGAUCUGAUUGACTT against Nfe2l1, the z-score is reported as inactive: 0.85. With GGAUUCAUUCAACCCAUGGTT against Olfr1441 the z-score was inactive: 1.52. With “CGACUGUGACAAAAACAUGTT against 2010109I03Rik” the z-score was inactive: 0.687. With GCUUCCUUCUGCUAGAUGGTT against Oxct2a the z-score was inactive: 0.167. In the case of “GGCAUCCUUGAGCUUUAAATT against 1110001M19Rik”, the z-score is reported as inactive: 0.632. With “GCCAUCUCUAUGUUGUUGATT against D130058I21Rik” the z-score was inactive: 0.0946. With GAGAAUGAGUUCUGCCCAGTT against Lhb the z-score was inactive: -1.31. In the case of “GCAAAAUUAUCAGUGAGGATT against C330027I04Rik”, the z-score is reported as inactive: 0.321. In the case of “GGAACAGAAGUCAAGUGGATT against C730027J19Rik”, the z-score is reported as inactive: 1.75. In the case of GGGAAACUCAAUGUAGAUGTT against Arhgap5, the z-score is reported as inactive: -0.272.
